Measured data: PubChem BioAssay AID1224826 (NIAID, 2016)

- Purpose: 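Knock-downs that raise or lower Tnf reporter signal after endotoxin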 (primary screen)
- Cell system: RAW264.7 G9 macrophages from mouse bearing reporters for p65 (GFP) and the Tnf promoter (mCherry)
- Reagent: siRNA pool against mouse genes, 100 nM
- Time to read-out: 16 h of LPS stimulation, after 2 days of siRNA transfection
- Conditions: bacterial lipopolysaccharide (Salmonella minnesota R595), 10 ng/ml
- Measured: 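Nuclear mCherry signal of the Tnf promoter reporter measured by imaging after background removal, scaled to each plate median and turned into robust z-scores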
- Scale: Tnf reporter robust z-score: higher = stronger Tnf promoter reporter signal after LPS
- Rule for the call: 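Called active when robust z-score is at most -1.3, matching the median of the Tlr4 knock-down control, or over 3; control wells and wells with under 50 cells never active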
- Calls: active = Tnf reporter clearly lowered or raised; inactive = no clear change in Tnf reporter
The deposit covers about 17,000 reagents; this is a random part of them. About 1,110 of them (6.6%) were called active. 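Active means lowered or raised reporter signal; replicate intensities are raw and not normalised per plate.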 Not all columns of the deposit are shown.

How did the screen score Map2k6 (mitogen-activated protein kinase kinase 6)?
Tnf reporter robust z-score: 0.79; fewer than 50 cells in well: enough cells in well; call: inactive

For Pramel13 (PRAME like 13), what was measured?
fewer than 50 cells in well: fewer than 50 cells per well; well left out of calls; call: inactive

Which result is listed for Rab5if (RAB5 interacting factor)?
fewer than 50 cells in well: fewer than 50 cells per well; well left out of calls; call: inactive

With Lemd2 (LEM domain containing 2), how do the results read?
Tnf reporter robust z-score: 0.28; fewer than 50 cells in well: enough cells in well; call: inactive

Which result is listed for Polrmt (polymerase (RNA) mitochondrial (DNA directed))?
Tnf reporter robust z-score: 2.39; fewer than 50 cells in well: enough cells in well; call: inactive

With Or6c70 (olfactory receptor family 6 subfamily C member 70), how do the results read?
Tnf reporter robust z-score: 0.95; fewer than 50 cells in well: enough cells in well; call: inactive

With Ube2d2b (ubiquitin-conjugating enzyme E2D 2B), what was measured?
Tnf reporter robust z-score: -0.16; fewer than 50 cells in well: enough cells in well; call: inactive

Which result is listed for Csf1r (colony stimulating factor 1 receptor)?
Tnf reporter robust z-score: 0.61; fewer than 50 cells in well: enough cells in well; call: inactive

What did the screen give for A930012O16Rik (RIKEN cDNA A930012O16 gene)?
Tnf reporter robust z-score: 2.02; fewer than 50 cells in well: enough cells in well; call: inactive

How did the screen score Zfp36 (zinc finger protein 36)?
Tnf reporter robust z-score: -0.32; fewer than 50 cells in well: enough cells in well; call: inactive

What did the screen give for Cdc23 (CDC23 cell division cycle 23)?
Tnf reporter robust z-score: 0.27; fewer than 50 cells in well: enough cells in well; call: inactive

How did the screen score Pkig (protein kinase inhibitor, gamma)?
Tnf reporter robust z-score: -0.85; fewer than 50 cells in well: enough cells in well; call: inactive

What did the screen give for Abca12 (ATP-binding cassette, sub-family A member 12)?
fewer than 50 cells in well: fewer than 50 cells per well; well left out of calls; call: inactive

What is on record for Fip1l1 (factor interacting with PAPOLA and CPSF1)?
Tnf reporter robust z-score: -0.12; fewer than 50 cells in well: enough cells in well; call: inactive

Single entries from the list:
Result of Ube2d2b (ubiquitin-conjugating enzyme E2D 2B) under “call”: inactive
Entry for Pkig (protein kinase inhibitor, gamma) under “Tnf reporter robust z-score”: -0.85
